Laboratory results from article PMC11873932.

T1: PSKH1 with C-terminal FLAG tag and TurboID fusion (human) (UniProt P11801)
T1 sequence: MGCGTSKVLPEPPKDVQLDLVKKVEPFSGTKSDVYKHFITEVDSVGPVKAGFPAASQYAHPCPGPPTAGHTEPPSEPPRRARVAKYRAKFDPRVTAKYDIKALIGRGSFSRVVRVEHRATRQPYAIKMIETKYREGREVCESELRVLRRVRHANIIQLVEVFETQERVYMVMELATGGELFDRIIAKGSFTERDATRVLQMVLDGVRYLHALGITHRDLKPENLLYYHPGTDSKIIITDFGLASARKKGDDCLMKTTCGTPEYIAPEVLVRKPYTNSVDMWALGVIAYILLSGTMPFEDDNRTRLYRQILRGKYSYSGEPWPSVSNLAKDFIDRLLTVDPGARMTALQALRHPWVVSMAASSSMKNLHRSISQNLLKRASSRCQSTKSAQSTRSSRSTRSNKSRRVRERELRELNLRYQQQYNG

T2: PSKH1 with C-terminal 3C protease-cleavable FLAG tag (human) (UniProt P11801)
T2 sequence: T1 sequence

B1: GOLGA8R, endogenous (protein, UniProt I6L899 1-631)
chain: MAEETQHNKLAAAKKKLKEYWQKNRPRVPAGVNRNRKTNGSIPETATSGGCQPPGDSATGFHREGPTSSATLKDLESPCQERAVVLDSTSVKISRLKNTIKSLKQQKKQVEHQLEEEKKANNERQKAERVLEVQIQTLIIQKEELNTDLYHMERSLRYFEEESKDLAVRLQHSLQCKGELERALSAVIATEKKKANQLSSCSKAHTEWELEQSLQDQALLKAQLTQLKESFQQLQLERDECAEHIEGERARWHQRMSKMSQEICTLKKEKQDMRWVEQLEWSLSKLKNQTAEPLPPEPPAVPSEVELQHLRKELERVAGELQSQVKNNQHISLLNRRQEERIREQEERLRKQEERLQEQHEKLRQLAKPQSVFEELNNENKSTLQLEQQVKELQEKLGEEHLEVASQQNQQLTAQLSLMALPGEGHGGEHLDSEGEEAPQPMPSVPEDPESREAMSSFMDHLKEKADLSELLKKQELRFIQYWQERCHQKIHHLLSEPGGRAKDAALGGGHHQAGAQGGDEGEAAGAAADGIAAYSNYNNGHRKFLAAAHNSADEPGPGAPAPQELGAADKHGDLREVTLTSSAQGEAREDPLLDKPTAQPIVQDHQEHPGLGSNCCVPLFCWAWLPRRRR
B2: Reticulocalbin-3 (RCN3), endogenous (protein, UniProt Q96D15 21-328)
chain: KPSPDAGPHGQGRVHQAAPLSDAPHDDAHGNFQYDHEAFLGREVAKEFDQLTPEESQARLGRIVDRMDRAGDGDGWVSLAELRAWIAHTQQRHIRDSVSAAWDTYDTDRDGRVGWEELRNATYGHYAPGEEFHDVEDAETYKKMLARDERRFRVADQDGDSMATREELTAFLHPEEFPHMRDIVIAETLEDLDRNKDGYVQVEEYIADLYSAEPGEEEPAWVQTERQQFRDFRDLNKDGHLDGSEVGHWVLPPAQDQPLVEANHLLHESDTDKDGRLSKAEILGNWNMFVGSQATNYGEDLTRHHDEL
B3: Cdc37 (protein, UniProt Q16543 1-378)
chain: MVDYSVWDHIEVSDDEDETHPNIDTASLFRWRHQARVERMEQFQKEKEELDRGCRECKRKVAECQRKLKELEVAEGGKAELERLQAEAQQLRKEERSWEQKLEEMRKKEKSMPWNVDTLSKDGFSKSMVNTKPEKTEEDSEEVREQKHKTFVEKYEKQIKHFGMLRRWDDSQKYLSDNVHLVCEETANYLVIWCIDLEVEEKCALMEQVAHQTIVMQFILELAKSLKVDPRACFRQFFTKIKTADRQYMEGFNDELEAFKERVRGRAKLRIEKAMKEYEEEERKKRLGPGGLDPVEVYESLPEELQKCFDVKDVQMLQDAISKMDPTDAKYHMQRCIDSGLWVPNSKASEAKEGEEAGPGDPLLEAVPKTGDEKDVSV
B4: Reticulocalbin-1 (RCN1) (protein, UniProt Q15293 30-331)
chain: KPTVRKERVVRPDSELGERPPEDNQSFQYDHEAFLGKEDSKTFDQLTPDESKERLGKIVDRIDNDGDGFVTTEELKTWIKRVQKRYIFDNVAKVWKDYDRDKDDKISWEEYKQATYGYYLGNPAEFHDSSDHHTFKKMLPRDERRFKAADLNGDLTATREEFTAFLHPEEFEHMKEIVVLETLEDIDKNGDGFVDQDEYIADMFSHEENGPEPDWVLSEREQFNEFRDLNKDGKLDKDEIRHWILPQDYDHAQAEARHLVYESDKNKDEKLTKEEILENWNMFVGSQATNYGEDLTKNHDEL
B5: PSKH2, endogenous (protein, UniProt Q96QS6 1-385)
chain: MGCGASRKVVPGPPALAWAKHEGQNQAGVGGAGPGPEAAAQAAQRIQVARFRAKFDPRVLARYDIKALIGTGSFSRVVRVEQKTTKKPFAIKVMETREREGREACVSELSVLRRVSHRYIVQLMEIFETEDQVYMVMELATGGELFDRLIAQGSFTERDAVRILQMVADGIRYLHALQITHRNLKPENLLYYHPGEESKILITDFGLAYSGKKSGDWTMKTLCGTPEYIAPEVLLRKPYTSAVDMWALGVITYALLSGFLPFDDESQTRLYRKILKGKYNYTGEPWPSISHLAKDFIDKLLILEAGHRMSAGQALDHPWVITMAAGSSMKNLQRAISRNLMQRASPHSQSPGSAQSSKSHYSHKSRHMWSKRNLRIVESPLSALL

How the values were obtained:
[1] = target: T1, PSKH1 with C-terminal FLAG tag and TurboID fusion (human); assay: proximity labelling; TurboID: PSKH1-FLAG-TurboID induced with doxycycline (100 ng/mL) overnight in HEL cells, biotin 500 uM for 10 min, Streptavidin capture, trypsin, mass spectrometry; against uninduced cells; parallel experiments with ionomycin
[2] = target: T2, PSKH1 with C-terminal 3C protease-cleavable FLAG tag (human); assay: affinity purification with mass spectrometry; FLAG-IP of PSKH1 with C-terminal 3C-cleavable FLAG from HEK293T lysates on anti-FLAG resin, elution with 3C protease, trypsin, mass spectrometry

Binder | binding [1] | binding [2]
B1 | binds | –
B2 | binds | –
B3 | – | binds
B4 | – | binds
B5 | no binding | –

These are yes or no findings as the source states them, for the method shown. In cells and extracts the contact can be indirect. A yes stands for co-enrichment or nearness to the bait. Other partners may have been found. For some assays here: A no says only that the protein was not detected with the bait. Sequences can lack the tags named with a protein.
